Experimental data from PubChem BioAssay AID624297 (National Center for Advancing Translational Sciences (NCATS), 2012).
The campaign covered roughly 340,000 compounds. About 6,200 (1.8%) were called active. This list was built around the results that the source calls inconclusive (neither active nor inactive); the mix of calls is not that of the screen. Calls come from the whole dose curve; as a rule, active = well fitted activation curve with a large enough effect; inconclusive = small, poorly fitted or top-dose-only effect; inactive = no such curve, though single readings can be large or run the other way. Where the call is inconclusive, the potency comes from a doubtful curve fit.

Test: A quantitative high throughput screen for small molecules that induce DNA re-replication in SW480 colon adenocarcinoma cells. For re-replication activation: % of control where 0% means no effect. Note: nearly all actives have a fitted effect of over 55% in size.
Conditions: Hoechst DNA content imaging, 48 h; re-replication activation: at 46.1 µM (top of the series) unless noted
Outline: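 Cells (250 per well) received 23 nL compound or DMSO by pin tool and were kept 48 hr at 37 C, 5% CO2. Nuclei were then stained with Hoechst for 40 min and scanned for DNA content.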
Potency is the fitted concentration of half-maximal effect.

| Structure (SMILES) | Potency | re-replication activation |
| --- | --- | --- |
| CC[N+](CC)(CC(=O)Nc1c(C)cccc1C)Cc1ccccc1 | inactive | – |
| COc1ccc(C2C(=O)c3ccccc3C2=O)c(OC)c1 | – | inactive: -7.98% |
| COc1ccc(C(=O)NCC2CCCO2)cc1 (stereo not given) | inconclusive: 0.0052 µM [activator, full curve, poor fit] | – |
| CC(C)(C)OC(=O)NCCCC[C@H](NC(=O)c1[nH]cnc1C(=O)Nc1ccccc1)C(=O)OC(C)(C)C | inconclusive: 29.1 µM [activator, partial curve, poor fit] | – |
| CN(C)C(=O)N1CCC(C(=O)NC2CCCCCCC2)CC1 | active: 8.2 µM | – |
| O=c1[nH]c2ccccc2nc1-c1ccccc1 | – | inactive: -6.05% |
| Cc1c(C)n(C)c2ccc(C(=O)NCCCN(C)C3CCCCC3)cc12 | inconclusive: 18.4 µM [activator, single point] | – |
| CC1CN(N=Cc2ccc([N+](=O)[O-])o2)C(=N)O1 (stereo not given) | inconclusive: 20.6 µM [activator, single point] | – |
| CCOC(=O)c1cc(CC)sc1NC(=O)CN1C(=O)C(=O)N(CC(C)C)C1=O | – | inactive: -17.3% |
| CC(=O)NC(c1ccc(C(C)C)cc1)c1ccc2cccnc2c1O (stereo not given) | active: 0.82 µM | – |
| Cc1ccc(S(=O)(=O)N2CCOCC2)cc1NC(=O)CNCc1ccccc1Cl | active: 5.17 µM | – |
| O=C(CCN1CCC2CCC(C2)C1)c1ccccc1 (stereo not given) | inconclusive: 29.1 µM [activator, single point] | – |
| CC1CCCCC1N(C)C1CCN(C(=O)CNC(=O)/C=C/c2cccc(Cl)c2)CC1 (stereo not given) | inconclusive: 3.66 µM [activator, full curve, poor fit] | – |
| Cc1ccc(OCCNCc2ccccc2)c(C)c1 | inconclusive: 6.51 µM [activator, single point] | – |
| O=C(N/N=C/c1cn(-c2ccccc2)nc1-c1cc2ccccc2o1)c1ccncc1 | inconclusive: 20.6 µM [activator, partial curve, poor fit] | – |
| CCCOc1cccc(NC(=O)OC2CCN(C)CC2)c1 | inconclusive: 1.46 µM [activator, partial curve, poor fit] | – |
| CCOc1ccccc1N1CCN(CC(=O)Nc2ncc(C)s2)CC1 | inconclusive: 29.1 µM [activator, single point] | – |
| CCOC(=O)c1sc(NC(=O)Cn2nnc3sc4c(c3c2=O)CCC(C(C)(C)C)C4)nc1C (stereo not given) | – | inactive: -2.03% |
| CC(=O)c1ccc(O)c(CSC2=NCCS2)c1 | inconclusive: 18.4 µM [activator, single point] | – |
| CCN(CC)S(=O)(=O)c1ccc2c(c1)nc(CCC(=O)Nc1ccccc1Cc1ccccc1)n2CC | inconclusive: 25.9 µM [activator, single point] | – |
| Cc1ccc(Oc2ncccc2N)c2c1CCC2 | inconclusive: 6.51 µM [activator, single point] | – |
| CCOc1ccccc1NC(=O)Cn1c(=O)c(OCC)nc2cnccc21 | – | inconclusive: 99.6% [activator] |
| COc1cc(C(c2c(C)[nH][nH]c2=O)c2c(C)[nH][nH]c2=O)ccc1OC(C)C | inconclusive: 3.66 µM [activator, partial curve, poor fit] | – |

Full records, quoted from the list. Values in the order: Potency | re-replication activation
COc1ccc(C2C(=O)c3ccccc3C2=O)c(OC)c1 is entered as – | inactive: -7.98%
CC(C)(C)OC(=O)NCCCC[C@H](NC(=O)c1[nH]cnc1C(=O)Nc1ccccc1)C(=O)OC(C)(C)C is entered as inconclusive: 29.1 µM [activator, partial curve, poor fit] | –

(listing goes on)

| Structure (SMILES) | Potency | re-replication activation |
| --- | --- | --- |
| CC(C)OC(=O)c1cc2c(ccn2C)n1CC(=O)N(Cc1ccccc1)c1ccc(F)cc1 | inconclusive: 20.6 µM [activator, single point] | – |
| C/C(=N/NC(=O)c1cc2ccccc2cc1O)c1ccco1 | inconclusive: 25.9 µM [activator, single point] | – |
| CC(C)(C)c1ccc(-n2ncc3c2CCCC3NC(=O)CCN2CCCCC2=O)cc1 (stereo not given) | – | inactive: -21.5% |
| COc1cccc(/C=N/NC(=O)c2cnccn2)c1 | – | inactive: -1.45% |
| CCOC(=O)C1CCN(C(=O)C(C)Sc2ccc(Cl)cc2)CC1 (stereo not given) | inconclusive: 6.31 µM [activator, partial curve, poor fit] | – |
| CCOC(=O)/C=C1\CN(CCC(C)C)S(=O)(=O)c2ccccc21 | inconclusive: 0.13 µM [activator, full curve, poor fit] | – |
| COc1ccc(-n2ncc(C(C)NS(=O)(=O)c3ccc(C)s3)c2C)cc1 (stereo not given) | – | inactive: -0.0461% |
| CCCC(=O)Nc1ccc(S(=O)(=O)Nc2cc(OC)ncn2)cc1 | – | inactive: -26.1% |
| CCCCN(CC)CCCNC(=O)c1cc2c(=O)n(CC)c3ccccc3c2s1 | inconclusive: 29.1 µM [activator, partial curve, poor fit] | – |
| CCCCCCCCC(=O)N/N=C(\C)c1ccc(O)cc1O | inconclusive: 2.31 µM [activator, full curve, poor fit] | – |
| O=C(/C=C/c1ccccc1Cl)NNC(=O)c1ccncc1 | inconclusive: 0.517 µM [activator, full curve] | – |
| COc1ccc(NC(=O)CCCc2nc3ccccc3c(=O)[nH]2)cc1Cl | – | inactive: -2.87% |
| Cc1ccccc1NC(=O)c1ccc(F)c(S(=O)(=O)N2CCCCC2)c1 | inconclusive: 6.51 µM [activator, single point] | – |
| CCCCCC(=O)N/N=C/c1cc(Br)c(O)c(OC)c1 | inconclusive: 20.6 µM [activator, partial curve, poor fit] | – |
| CC1CCC(NC(=O)CSc2nnc(-c3cccnc3)o2)CC1 (stereo not given) | – | inactive: -2.13% |
| Fc1ccc(C2c3[nH]c4ccccc4c3CCN2Cc2ccoc2)cc1 (stereo not given) | inconclusive: 18.4 µM [activator, single point] | – |
| CC(C)(CNC(=O)Cc1ccc(Cl)cc1Cl)N1CCCCC1 | – | inactive: -2.33% |
| O=C(/C=C/c1ccco1)Nc1nc(-c2ccccn2)cs1 | inconclusive: 29.1 µM [activator, single point] | – |
| O=C(CC1C(=O)NCCN1C(=O)Nc1ccccc1)Nc1cc(Cl)cc(Cl)c1 (stereo not given) | inconclusive: 2.59 µM [activator, single point] | – |
| O=C(NC(c1ccccc1)c1ccccc1)c1cccc(S(=O)(=O)NCc2ccccc2)c1 | inconclusive: 25.9 µM [activator, partial curve, poor fit] | – |
| Cc1cccc(C)c1NC(=O)c1ccc([N+](=O)[O-])s1 | inconclusive: 20.6 µM [activator, single point] | – |
| Cc1ccc(NC(=O)CCC(=O)NNC(=S)Nc2ccccc2)c(C)c1 | – | inactive: -0.334% |
